# Out of some 320,000 compounds screened, about 2,100 (0.66%) were called active. This list was built around the results that the source calls inconclusive (neither active nor inactive); the mix of calls is not that of the screen. Calls come from the whole dose curve; as a rule, active = well fitted inhibition curve with a large enough effect in the signal ratio, with a control signal flat (not every such curve was filed as active); inconclusive = small, poorly fitted or top-dose-only effect, or effect the other way, or a change in a side signal; inactive = flat fitted curve, though single readings scatter; the % refers to the signal ratio. Potencies beside an inconclusive call are fits to weak or partial responses and may not hold up.
# Test: qHTS Assay for Lipid Storage Modulators in Drosophila S3 Cells
# Settings: BODIPY lipid droplet fluorescence, 18-24 h, cells fed with added oleic acid; lipid storage change, negative = inhibition: at 46.1 µM (top of the series) unless noted
# How it was run: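 Drosophila S3 cells got compounds at several concentrations plus oleic acid (400 uM solution). Laser-scanning cytometry with 488 nm excitation read lipid droplets at 500-530 nm and cells at 575-640 nm. Percent activity was relative to 20 uM Triacsin C.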
# % is set by controls: 0 for no effect and ±100 for the full control effect; potency is the fitted concentration of half-maximal effect.
Compound,"lipid storage change, negative = inhibition",Potency
COc1ccccc1C(=O)NCC(=O)N1CC=C(c2ccccc2)CC1,inconclusive: 2.18%,
COc1ccccc1NC(=O)COC(=O)/C=C/c1ccc2c(c1)OCO2,inactive,
CSc1nnc([C@@H](NC(=O)OC(C)(C)C)C(C)C)o1,inconclusive: 11.2%,
CC1CN(Cc2nc3c(c(=O)n(C)c(=O)n3C)n2CCN2CCOCC2)CC(C)O1 (configuration not stated),inconclusive: 9.25%,
Cc1ccc(COc2cccc3c2CCN(Cc2ccc(F)cc2)C3=O)cc1,inconclusive: -22.1%,
O=C(Cn1[nH]c(=O)c2ccccc2c1=O)NCC1COc2ccccc2O1 (configuration not stated),,"inconclusive: 29.1 µM [falling, single point]"
COc1ccc(-c2nnc3n2CCCCC3)cc1OC,inconclusive: 68.5%,
CCC(=O)Nc1ccc(Nc2nc(C)c([N+](=O)[O-])c(Nc3ccc(NC(=O)CC)cc3)n2)cc1,inconclusive: -20.4%,
O=C(COc1ccc(Cl)cc1[N+](=O)[O-])NC1CCCCC1,inconclusive: 49.3% [at 0.00295 µM],
CCC(=O)NC(c1cccs1)c1ccc2cccnc2c1O (configuration not stated),inconclusive: -28.4%,
O=C(Cc1ccccc1)Nc1ccc(N2CCCC2)cc1,,"inconclusive: 5.17 µM [activator, full curve, poor fit]"
CCNC(=S)N1CCn2c(nc3ccccc32)C1,inconclusive: 0.908%,
O=C(N/N=C/c1ccc2c(c1)OCO2)c1cc(-c2ccc(F)cc2)nc2ccccc12,inconclusive: 37.1%,
CCC(NC(=O)C1CCCO1)c1ccccc1 (configuration not stated),,"inconclusive: 29.1 µM [activator, single point]"
CN(CC(=O)Nc1ccc(C(N)=O)cc1)CC(=O)Nc1ccccc1Cl,inconclusive: 20.9%,
O=C(Oc1cccc([N+](=O)[O-])c1)c1ccc2c(=O)n3c(nc2c1)CCC3,,"inconclusive: 29.1 µM [falling, single point]"
O=C(O)CCc1ccc(-c2cccs2)n1NC(=O)c1ccco1,,"inconclusive: 0.0291 µM [falling, full curve]"
Cc1cc(C)cc(N(CC(=O)N2CC=C(c3ccccc3)CC2)S(=O)(=O)c2c(C)noc2C)c1,inconclusive: 74.6%,
CC(=O)c1cccc(NC(=O)NNC(=O)c2ccc(Cl)cc2Cl)c1,inconclusive: 18.2%,
COc1ccc(C(c2sc3nc(C)nn3c2O)N2CCN(CCO)CC2)cc1OC (configuration not stated),,"inconclusive: 16.4 µM [falling, partial curve]"
Cc1cc(SCC#N)nc2ccccc12,inconclusive: 0.0296%,
O=C(COC(=O)c1ccc(O)cc1O)Nc1ccc2ccccc2c1,,"inconclusive: 20.6 µM [activator, partial curve, poor fit]"
Cc1noc(C)c1C(=O)NCCC1=CCCCC1,inconclusive: -58.1%,
COCCCNC(=O)C1CC(=O)N(CCc2ccc(F)cc2)C1 (configuration not stated),inconclusive: 13.3%,
CCOc1ccc(OCC)c(NC(=O)C2CCCN(C(=O)c3ccc(Cl)cc3)C2)c1 (configuration not stated),inconclusive: 12.4%,
Cc1nn(Cc2ccc(C(=O)n3cccn3)o2)c(C)c1Br,inactive,

Compound,"lipid storage change, negative = inhibition",Potency
CCCc1cc(=O)[nH]c(/N=C(/NC(=O)C(C)N2C(=O)c3ccccc3C2=O)Nc2ccccc2)n1 (configuration not stated),inconclusive: -89.5%,
COc1cc(/C=N/NC(=O)[C@H](Cc2c[nH]c3ccccc23)NC(=O)OCC(C)C)cc([N+](=O)[O-])c1O,inconclusive: 15.2%,
O=C(Nc1ccccc1C(=O)N1CCN(Cc2ccccc2)CC1)c1ccccc1,,"inconclusive: 14.6 µM [activator, partial curve, poor fit]"
CC(=O)Nc1ccc(SCC(=O)NNC(=O)CN(C)S(=O)(=O)c2ccc(C)cc2)cc1,inconclusive,
CN(CC(=O)Nc1ccc(N2CCOCC2)cc1)C(=O)Cc1ccccc1,inconclusive: 75.3%,
CCn1c(CN(C)c2ccccc2)nc2ccccc21,inconclusive: 4.92%,
CCc1cc(=O)oc2c(C)c(OCC(=O)NCCCN3CCOCC3)ccc12,inconclusive: -142%,
CCOc1ccc2nc(SC3CC(=O)N(c4ccccc4)C3=O)sc2c1 (configuration not stated),,"inconclusive: 25.9 µM [falling, single point]"
CCCc1ccc(-c2csc(NC(=O)C3=COCCO3)n2)cc1,inconclusive: 9.57%,
COc1ccc(N2CCN(C(CNC(=O)OCc3ccccc3)c3ccco3)CC2)cc1 (configuration not stated),inconclusive: 3.95%,
Cc1ccc(CCc2nnc(SCC(=O)Nc3cc(Cl)ccc3Cl)n2-c2ccccc2)o1,,"inconclusive: 10.3 µM [activator, partial curve, poor fit]"
COc1cc2nc(Cl)nc(N3CCN(C)CC3)c2cc1OC,inconclusive: 4.26%,
COc1cccc(NC(=O)CCc2ccccc2)c1,inconclusive: 15%,
O=C(Nc1ccc2oc(=O)ccc2c1)c1ccco1,,"inconclusive: 1.16 µM [activator, partial curve]"
NC(N)=NC(=O)Cc1c(Cl)cccc1Cl,inconclusive: -0.0953%,
Cc1cc(N)n(-c2cc(C)c3ccccc3n2)n1,inconclusive: -24.7%,
O=C(OCC(=O)c1cccc2ccccc12)c1ccc(CO)cc1,inconclusive: -4.41%,
CCOC(=O)c1sc(NC(=O)C(CC)Sc2nnc3c4ccccc4n(CC)c3n2)nc1C (configuration not stated),inconclusive: -22.6%,
Cn1c2ccccc2c2c(C(=O)N3CCN(c4ccccc4)CC3)cn(C3CCCC3)c(=O)c21,inconclusive: -13.8%,
COc1ccccc1CNCC(=O)Nc1ccc(N2CCOCC2)cc1,inconclusive: -11.7%,
CC(C)(C)n1cnc2cc(NC(=O)c3ccco3)ccc21,inconclusive: 71.1%,
CC(C)c1nccn1S(=O)(=O)c1cc(Cl)ccc1Cl,inconclusive: -57.2%,
CCC1=NN(C(=O)c2ccc([N+](=O)[O-])cc2)C(O)(c2ccccc2)C1 (configuration not stated),,"inconclusive: 29.1 µM [falling, single point]"
CCC(O)CNC(=O)NC(=C(Cl)Cl)c1ccc(C)c(F)c1 (configuration not stated),,"inconclusive: 18.4 µM [falling, single point]"
Cc1cccc(-c2nc(CN3CCN(C(=O)C4CCCO4)CC3)cs2)c1 (configuration not stated),inconclusive: 2.31%,
Cc1cccc(Cn2c(=O)n(-c3ccc(CC(=O)NCc4ccco4)cc3)c(=O)c3sccc32)c1,inconclusive: 38%,

Compound,"lipid storage change, negative = inhibition",Potency
Cc1cccc(OCCCC(=O)NC2CCCCC2)c1,,"inconclusive: 3.66 µM [activator, single point]"
COc1ccc(C(=O)/C=C/c2ccccc2)c(O)c1,inconclusive: 2.49%,
Cc1c(C(=O)OCc2nc3ccsc3c(=O)[nH]2)oc2ccccc12,inconclusive: 49.3%,
CCNC(=S)Nc1cc2oc3ccccc3c2cc1OC,inconclusive: 47.7%,
O=S(=O)(/N=C(\c1ccccc1)N1CCOCC1)c1cccs1,inconclusive: -20.6%,
CC(C)(C)n1ncc2c(=O)n(CC(=O)NCc3ccco3)cnc21,inconclusive: -4.17%,
Cc1ccc(CNC(=O)c2cc3c(=O)n(C)c4ccccc4c3n2C)o1,,"inconclusive: 16.4 µM [activator, single point]"
C#CCOCCOCCOCCNc1nc(N2CCN(C(=O)[C@H]([C@@H](C)O)n3cc(CCCCN)nn3)CC2)nc(N2CCN(C(=O)[C@H]([C@@H](C)CC)n3cc(CCCCN)nn3)CC2)n1,inconclusive: 14%,
CCOc1cc(N2CCOCC2)c(OCC)cc1NC(=O)CN1C(=O)NC2(CCCCC2)C1=O,,"inconclusive: 10.3 µM [activator, partial curve]"
CCCOC(=O)C1[C@H]2C(=O)N(CC3CCCO3)C[C@]23C=C[C@H]1O3 (some centres not stated),,"inconclusive: 6.51 µM [cytotoxic, single point]"
O=C1N2CCSC2=NC1(Nc1nccs1)C(F)(F)F (configuration not stated),,"inconclusive: 25.9 µM [falling, partial curve, poor fit]"
CCn1c(NCCc2ccc(OC)c(OC)c2)nc2c1c(=O)n(C)c(=O)n2C,,"inconclusive: 2.06 µM [activator, partial curve]"
CCN1CCN(C(=S)c2ccc(O)cc2)CC1,inconclusive: -10.4%,
O=C(O)CCC(=O)Nc1ccc(N2CCOCC2)cc1,inconclusive: -15.8%,
O=S(=O)(N=S(N1CCCCC1)N1CCCCC1)c1ccccc1,inconclusive: 17.9%,
COc1ccc(CCCc2nnc(SCC(=O)N/N=C\c3ccc(O)c(OC)c3)o2)cc1C,inconclusive: -16.2%,
CC(=O)c1ccc(NC(=O)Cn2cnc(S(=O)(=O)N3CCCC3)c2)cc1,inconclusive: 134%,
O=C(Cc1ccc(Cl)cc1)Nc1cccc(-c2nnc(-c3ccco3)o2)c1,inconclusive: -37.9%,
COc1ccccc1C(=O)Nc1ccc(S(=O)(=O)N2CCCC2)cc1,,"inconclusive: 20.6 µM [activator, single point]"
COc1ccccc1N1CCN(C(=O)c2cc3cc(Cl)ccc3[nH]2)CC1,,"inconclusive: 29.1 µM [activator, single point]"
COCc1cc(C)n(CC(=O)Nc2cc(C)cc(C)c2)c(=O)c1C#N,,"inconclusive: 0.731 µM [falling, single point]"
Cc1cccc(C)c1OCc1nnc(SCC(=O)NCCc2ccccc2)o1,inconclusive: -10.9%,
Cc1c2c(n3c(nc4ccccc43)c1C#N)N(CCCN(C)C)CC2,inconclusive: -0.459%,
COC(=O)c1ccc2c(=O)n(Cc3ccc(C(=O)NCCCN4CCC(C)CC4)cc3)c(=S)[nH]c2c1,inconclusive: -3.86%,
CCC1C/C(=C/c2ccco2)C(=O)/C(=C/c2ccco2)C1 (configuration not stated),,"inconclusive: 14.6 µM [falling, partial curve, poor fit]"

# Reprinted at random: 3 compounds from above, in no set order.
Compound,"lipid storage change, negative = inhibition",Potency
Cc1cc(SCC#N)nc2ccccc12,inconclusive: 0.0296%,
CCNC(=S)N1CCn2c(nc3ccccc32)C1,inconclusive: 0.908%,
NC(N)=NC(=O)Cc1c(Cl)cccc1Cl,inconclusive: -0.0953%,

# Three compounds already listed, arranged by length of the SMILES, falling:
Compound,"lipid storage change, negative = inhibition",Potency
C#CCOCCOCCOCCNc1nc(N2CCN(C(=O)[C@H]([C@@H](C)O)n3cc(CCCCN)nn3)CC2)nc(N2CCN(C(=O)[C@H]([C@@H](C)CC)n3cc(CCCCN)nn3)CC2)n1,inconclusive: 14%,
CCCOC(=O)C1[C@H]2C(=O)N(CC3CCCO3)C[C@]23C=C[C@H]1O3 (some centres not stated),,"inconclusive: 6.51 µM [cytotoxic, single point]"
Cc1cccc(C)c1OCc1nnc(SCC(=O)NCCc2ccccc2)o1,inconclusive: -10.9%,

# Source: PubChem BioAssay AID2685 (National Center for Advancing Translational Sciences (NCATS), 2010)
